Data on 1 molecule can be found in publication PMC340941.

The target of experiment [1] is zebrafish Lefty1/HA (zebrafish). The experiment in a line: co-IP; mRNAs (1 ng each) injected into Xenopus embryos; after chemical cross-linking (DTSSP) lysates immunoprecipitated with anti-HA antibody for Lefty1/HA or Sqt/HA; Western blot (Figure 3A). (Immunoblotting shows a protein as a band on a membrane.)
In experiment [2] the target is Sqt^ActβB[loopβ8]/HA (zebrafish | Xenopus). The experiment in a line: co-IP; RNAs (1 ng each) for ligand/HA, ActRIIB(KR)/Myc and Alk4(KR)/Flag injected into Xenopus embryos, without Cripto/Flag; Western blot of coimmunoprecipitates (Figure 5F).
Experiment [3] concerns the target Xenopus ActivinβB/HA (Xenopus). The description is as above.
The target of experiment [4] is Sqt^ActβB[loopβ8]/HA (zebrafish | Xenopus). As to the kind of experiment: co-IP; RNAs (1 ng each) for ligand/HA, ActRIIB(KR)/Myc and Alk4(KR)/Flag injected into Xenopus embryos, with Cripto/Flag; Western blot of coimmunoprecipitates (Figure 5F).

These are yes or no findings as the source states them, for the method shown. In cells and extracts the contact can be indirect. For some of these results: Binding can be weak; no strength is given. Tags and fused reporters may be left off the sequences shown.

B1: human Alk4(KR)/Flag (receptor, UniProt P36896 24-505)
chain: SGPRGVQALLCACTSCLQANYTCETDGACMVSIFNLDGMEHHVRTCIPKVELVPAGKPFYCLSSEDLRNTHCCYTDYCNRIDLRVPSGHLKEPEHPSMWGPVELVGIIAGPVFLLFLIIIIVFLVINYHQRVYHNRQRLDMEDPSCEMCLSKDKTLQDLVYDLSTSGSGSGLPLFVQRTVARTIVLQEIIGKGRFGEVWRGRWRGGDVAVRIFSSREERSWFREAEIYQTVMLRHENILGFIAADNKDNGTWTQLWLVSDYHEHGSLFDYLNRYTVTIEGMIKLALSAASGLAHLHMEIVGTQGKPGIAHRDLKSKNILVKKNGMCAIADLGLAVRHDAVTDTIDIAPNQRVGTKRYMAPEVLDETINMKHFDSFKCADIYALGLVYWEIARRCNSGGVHEEYQLPYYDLVPSDPSIEEMRKVVCDQKLRPNIPNWWQSYEALRVMGKMMRECWYANGAARLTALRIKKTLSQLSVQEDVKI
For the molecule B1, the binding result in experiment [1] is “no binding”; in experiment [2], “binds”; in experiment [3], “binds”; in experiment [4] it was “binds”.
